Experimental data from patent publication US20040029129A1, “Identification of essential genes in microorganisms” (priority 2001, published 2004).
At least one compound was matched to its structure with a doubt left.

Experiments:
[1] = test system: E. coli transformed with IPTG-inducible antisense clones; assay: Cell-based assay using antisense complementary to genes encoding ribosomal proteins (antibiotic sensitivity with and without IPTG); settings: with IPTG versus without IPTG; for Sensitivity to antibiotic of cells transcribing antisense to protein synthesis genes: AS-rplL, AS-rplW, AS-rplL/J and other protein synthesis gene clones
[2] = test system: E. coli transfected with antisense clones; assay: Tetracycline sensitivity of E. coli transfected with antisense clones; assay type: cell-based, Escherichia coli; settings: antisense clones to genes not directly involved in protein synthesis (AS-atpB/E, AS-visC, AS-elaD, AS-yohH) compared with AS-rplW and AS-rplLrplJ; FIG. 9

SMILES | Sensitivity to antibiotic of cells transcribing antisense to protein synthesis genes [1] | Sensitivity to antibiotic of cells transcribing antisense to genes not involved in protein synthesis ([1]; AS-atpB/E, AS-visC, AS-elaD, AS-yohH) | tetracycline sensitivity of antisense clones [2]
CC1COc2c(N3CCN(C)CC3)c(F)cc3c(=O)c(C(=O)O)cn1c23 (stereo not shown) [Ofloxacin] | does not show increased sensitivity |  | 
CN(C)[C@@H]1C(O)=C(C(N)=O)C(=O)[C@@]2(O)C(O)=C3C(=O)c4c(O)cccc4[C@@](C)(O)[C@H]3C[C@@H]12 [tetracycline] | increased sensitivity | did not show the same increased sensitivity | much less sensitive
